# Results reported in the supplement of paper PMC7666118.
# Amino acid sequences for entries named in this document (tags omitted). A change or cut given only in a name is not applied to a line headed by its entry.
# UniProt O94952: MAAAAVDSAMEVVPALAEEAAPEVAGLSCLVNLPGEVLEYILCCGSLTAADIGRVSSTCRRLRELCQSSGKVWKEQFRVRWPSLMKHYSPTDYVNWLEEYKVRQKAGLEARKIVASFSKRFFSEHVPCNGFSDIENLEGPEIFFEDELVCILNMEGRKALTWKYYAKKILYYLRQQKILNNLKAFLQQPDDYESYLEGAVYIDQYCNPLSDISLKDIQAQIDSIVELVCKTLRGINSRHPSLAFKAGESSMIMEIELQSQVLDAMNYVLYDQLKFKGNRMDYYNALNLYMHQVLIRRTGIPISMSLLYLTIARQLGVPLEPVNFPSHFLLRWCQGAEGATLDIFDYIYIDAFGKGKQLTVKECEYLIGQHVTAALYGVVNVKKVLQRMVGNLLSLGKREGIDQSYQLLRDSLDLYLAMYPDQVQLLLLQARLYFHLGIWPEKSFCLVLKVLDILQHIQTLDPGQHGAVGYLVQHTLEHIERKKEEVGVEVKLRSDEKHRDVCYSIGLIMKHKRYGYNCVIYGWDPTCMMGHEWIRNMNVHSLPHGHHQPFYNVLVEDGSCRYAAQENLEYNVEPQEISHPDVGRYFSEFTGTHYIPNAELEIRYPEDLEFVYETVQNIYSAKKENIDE
# UniProt Q5T1M5: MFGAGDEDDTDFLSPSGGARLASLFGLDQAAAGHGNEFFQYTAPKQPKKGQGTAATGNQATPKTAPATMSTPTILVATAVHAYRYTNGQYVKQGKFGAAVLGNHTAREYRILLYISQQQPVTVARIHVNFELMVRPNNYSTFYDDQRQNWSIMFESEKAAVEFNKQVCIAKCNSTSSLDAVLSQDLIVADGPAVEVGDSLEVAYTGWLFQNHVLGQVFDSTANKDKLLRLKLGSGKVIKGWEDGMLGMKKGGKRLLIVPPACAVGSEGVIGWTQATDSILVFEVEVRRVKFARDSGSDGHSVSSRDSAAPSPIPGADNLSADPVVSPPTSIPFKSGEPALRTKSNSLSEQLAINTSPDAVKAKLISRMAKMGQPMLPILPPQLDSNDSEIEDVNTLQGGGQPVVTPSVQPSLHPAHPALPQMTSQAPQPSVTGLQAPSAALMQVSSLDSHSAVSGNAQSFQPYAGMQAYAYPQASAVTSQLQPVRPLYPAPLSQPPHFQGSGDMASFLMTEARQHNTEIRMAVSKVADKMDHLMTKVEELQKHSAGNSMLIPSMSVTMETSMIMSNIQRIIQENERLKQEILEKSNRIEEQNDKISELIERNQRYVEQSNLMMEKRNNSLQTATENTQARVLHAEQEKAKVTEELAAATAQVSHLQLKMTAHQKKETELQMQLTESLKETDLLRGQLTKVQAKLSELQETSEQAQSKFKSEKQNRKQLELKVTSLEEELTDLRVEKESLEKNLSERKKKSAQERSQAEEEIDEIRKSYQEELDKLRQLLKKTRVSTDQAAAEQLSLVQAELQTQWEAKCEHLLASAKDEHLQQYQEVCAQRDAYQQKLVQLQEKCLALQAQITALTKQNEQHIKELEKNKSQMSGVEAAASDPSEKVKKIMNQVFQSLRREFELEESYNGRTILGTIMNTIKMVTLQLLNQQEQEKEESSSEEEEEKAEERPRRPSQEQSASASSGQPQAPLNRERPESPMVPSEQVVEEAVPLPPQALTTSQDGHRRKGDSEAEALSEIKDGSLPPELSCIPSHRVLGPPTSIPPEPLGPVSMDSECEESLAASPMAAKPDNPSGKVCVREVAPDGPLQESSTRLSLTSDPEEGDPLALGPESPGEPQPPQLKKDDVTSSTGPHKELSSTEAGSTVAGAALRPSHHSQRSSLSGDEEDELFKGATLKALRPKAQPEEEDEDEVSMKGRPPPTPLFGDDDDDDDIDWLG
# UniProt Q92562: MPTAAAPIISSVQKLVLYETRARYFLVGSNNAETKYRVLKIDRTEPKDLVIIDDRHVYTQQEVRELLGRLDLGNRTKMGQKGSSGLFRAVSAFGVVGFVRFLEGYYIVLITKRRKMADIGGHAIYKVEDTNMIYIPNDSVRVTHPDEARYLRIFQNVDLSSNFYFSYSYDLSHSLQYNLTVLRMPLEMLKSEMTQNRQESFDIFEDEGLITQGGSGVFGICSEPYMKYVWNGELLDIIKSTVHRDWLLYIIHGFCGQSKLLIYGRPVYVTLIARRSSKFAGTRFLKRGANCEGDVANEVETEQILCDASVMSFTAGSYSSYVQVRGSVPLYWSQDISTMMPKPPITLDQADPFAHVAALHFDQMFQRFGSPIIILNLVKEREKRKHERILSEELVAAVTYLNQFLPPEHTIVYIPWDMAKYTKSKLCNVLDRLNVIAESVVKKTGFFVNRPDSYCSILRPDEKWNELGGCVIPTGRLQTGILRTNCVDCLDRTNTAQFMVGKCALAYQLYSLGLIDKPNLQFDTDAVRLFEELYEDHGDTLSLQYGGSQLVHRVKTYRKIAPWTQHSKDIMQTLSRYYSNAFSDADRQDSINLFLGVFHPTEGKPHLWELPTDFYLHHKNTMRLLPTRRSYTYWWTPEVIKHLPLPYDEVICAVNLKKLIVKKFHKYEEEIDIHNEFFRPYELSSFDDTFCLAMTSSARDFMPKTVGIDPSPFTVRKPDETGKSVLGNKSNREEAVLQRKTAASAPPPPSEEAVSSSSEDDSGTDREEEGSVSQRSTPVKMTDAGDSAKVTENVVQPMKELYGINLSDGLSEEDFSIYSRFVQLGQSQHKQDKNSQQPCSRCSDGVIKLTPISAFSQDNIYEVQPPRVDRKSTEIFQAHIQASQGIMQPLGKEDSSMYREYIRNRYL
# UniProt Q8TAV0: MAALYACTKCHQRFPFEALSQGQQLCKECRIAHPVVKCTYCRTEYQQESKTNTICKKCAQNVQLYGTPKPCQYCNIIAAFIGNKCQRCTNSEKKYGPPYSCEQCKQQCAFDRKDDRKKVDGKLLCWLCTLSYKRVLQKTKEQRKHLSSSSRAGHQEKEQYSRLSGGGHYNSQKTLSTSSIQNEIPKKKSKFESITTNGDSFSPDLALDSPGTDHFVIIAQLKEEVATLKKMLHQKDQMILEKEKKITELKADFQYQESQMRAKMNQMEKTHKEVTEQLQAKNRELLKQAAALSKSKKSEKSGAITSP
# UniProt Q9UBQ6: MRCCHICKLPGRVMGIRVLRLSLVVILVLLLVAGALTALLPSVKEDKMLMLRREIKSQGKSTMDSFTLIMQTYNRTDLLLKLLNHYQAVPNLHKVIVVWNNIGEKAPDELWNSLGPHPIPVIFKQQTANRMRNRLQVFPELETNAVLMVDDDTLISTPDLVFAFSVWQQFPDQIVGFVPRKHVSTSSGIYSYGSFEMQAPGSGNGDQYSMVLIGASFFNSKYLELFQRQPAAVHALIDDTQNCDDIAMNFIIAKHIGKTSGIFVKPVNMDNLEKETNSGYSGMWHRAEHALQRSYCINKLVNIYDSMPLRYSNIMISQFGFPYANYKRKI
# UniProt Q495W5: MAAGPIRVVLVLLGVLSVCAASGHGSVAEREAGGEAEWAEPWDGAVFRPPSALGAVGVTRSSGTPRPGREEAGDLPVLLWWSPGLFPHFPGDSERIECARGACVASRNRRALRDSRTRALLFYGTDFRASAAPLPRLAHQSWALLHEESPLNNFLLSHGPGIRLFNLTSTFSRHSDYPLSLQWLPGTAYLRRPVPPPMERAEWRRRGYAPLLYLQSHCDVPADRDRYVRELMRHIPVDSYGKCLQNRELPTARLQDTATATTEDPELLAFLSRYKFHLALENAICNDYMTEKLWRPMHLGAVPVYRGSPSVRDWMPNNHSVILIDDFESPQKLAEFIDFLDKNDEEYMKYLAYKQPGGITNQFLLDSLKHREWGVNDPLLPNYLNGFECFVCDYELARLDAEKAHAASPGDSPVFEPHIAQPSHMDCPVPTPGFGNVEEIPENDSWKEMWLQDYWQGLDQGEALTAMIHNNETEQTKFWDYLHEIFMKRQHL
# UniProt Q6P582, whole entry: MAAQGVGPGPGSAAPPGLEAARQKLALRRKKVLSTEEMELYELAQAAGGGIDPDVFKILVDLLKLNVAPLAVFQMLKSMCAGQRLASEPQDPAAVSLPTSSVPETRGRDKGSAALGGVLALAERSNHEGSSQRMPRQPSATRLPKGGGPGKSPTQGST
# UniProt Q06547, whole entry: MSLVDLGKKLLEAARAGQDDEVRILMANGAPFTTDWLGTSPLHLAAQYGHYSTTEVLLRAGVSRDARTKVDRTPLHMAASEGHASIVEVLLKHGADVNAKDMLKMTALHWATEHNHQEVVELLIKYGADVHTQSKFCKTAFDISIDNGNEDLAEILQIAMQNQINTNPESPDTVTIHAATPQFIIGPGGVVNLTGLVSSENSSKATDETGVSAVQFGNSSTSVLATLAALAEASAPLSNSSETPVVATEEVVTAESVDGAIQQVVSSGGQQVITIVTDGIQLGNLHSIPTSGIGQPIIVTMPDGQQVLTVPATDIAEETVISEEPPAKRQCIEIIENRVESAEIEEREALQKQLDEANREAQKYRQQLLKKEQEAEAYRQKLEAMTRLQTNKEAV
# UniProt P22830: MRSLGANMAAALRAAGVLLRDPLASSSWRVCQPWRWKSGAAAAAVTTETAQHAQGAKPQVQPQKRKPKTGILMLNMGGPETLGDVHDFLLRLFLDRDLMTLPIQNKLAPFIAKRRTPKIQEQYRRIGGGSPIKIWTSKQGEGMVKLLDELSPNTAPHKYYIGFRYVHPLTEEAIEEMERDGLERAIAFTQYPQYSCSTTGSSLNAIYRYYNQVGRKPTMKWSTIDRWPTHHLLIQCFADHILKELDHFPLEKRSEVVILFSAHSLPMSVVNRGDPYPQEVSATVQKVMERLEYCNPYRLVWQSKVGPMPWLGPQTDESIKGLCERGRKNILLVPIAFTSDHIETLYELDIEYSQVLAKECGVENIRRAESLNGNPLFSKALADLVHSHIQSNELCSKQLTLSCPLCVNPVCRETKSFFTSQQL
# UniProt Q9UET6: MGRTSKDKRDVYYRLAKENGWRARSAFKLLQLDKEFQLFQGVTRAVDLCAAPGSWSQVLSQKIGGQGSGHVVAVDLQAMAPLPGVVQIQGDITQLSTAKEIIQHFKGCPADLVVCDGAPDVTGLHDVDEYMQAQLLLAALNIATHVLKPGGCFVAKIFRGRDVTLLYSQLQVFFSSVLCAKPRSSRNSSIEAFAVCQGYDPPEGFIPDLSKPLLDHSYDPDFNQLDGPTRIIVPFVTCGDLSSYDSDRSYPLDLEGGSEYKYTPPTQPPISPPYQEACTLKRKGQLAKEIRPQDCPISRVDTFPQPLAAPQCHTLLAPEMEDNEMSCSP
# UniProt Q14320: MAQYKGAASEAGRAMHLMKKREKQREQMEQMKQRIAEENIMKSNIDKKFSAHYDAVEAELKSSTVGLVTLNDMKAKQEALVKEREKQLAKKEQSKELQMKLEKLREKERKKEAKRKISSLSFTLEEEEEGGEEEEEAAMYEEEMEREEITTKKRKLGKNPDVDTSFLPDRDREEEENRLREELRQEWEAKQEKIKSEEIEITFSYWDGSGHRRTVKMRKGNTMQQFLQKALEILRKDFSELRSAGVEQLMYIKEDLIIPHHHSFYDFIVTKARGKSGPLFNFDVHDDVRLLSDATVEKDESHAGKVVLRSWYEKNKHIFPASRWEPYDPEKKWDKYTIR
# UniProt Q8NEZ5: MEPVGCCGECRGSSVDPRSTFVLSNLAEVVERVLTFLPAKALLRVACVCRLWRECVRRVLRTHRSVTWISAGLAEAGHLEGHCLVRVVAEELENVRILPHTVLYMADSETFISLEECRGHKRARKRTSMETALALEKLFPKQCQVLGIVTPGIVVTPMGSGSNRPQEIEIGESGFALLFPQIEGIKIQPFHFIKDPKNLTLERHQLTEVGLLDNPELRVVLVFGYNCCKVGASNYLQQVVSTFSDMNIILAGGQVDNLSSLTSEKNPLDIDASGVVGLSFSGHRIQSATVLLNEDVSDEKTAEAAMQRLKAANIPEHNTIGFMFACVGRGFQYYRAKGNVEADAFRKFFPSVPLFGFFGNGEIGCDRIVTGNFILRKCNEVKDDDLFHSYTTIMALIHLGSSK
# UniProt Q9H5X1: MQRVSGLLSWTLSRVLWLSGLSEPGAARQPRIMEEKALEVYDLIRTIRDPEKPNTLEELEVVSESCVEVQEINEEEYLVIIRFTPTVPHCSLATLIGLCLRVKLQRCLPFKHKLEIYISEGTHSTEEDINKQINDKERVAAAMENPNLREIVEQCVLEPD
# UniProt P14324: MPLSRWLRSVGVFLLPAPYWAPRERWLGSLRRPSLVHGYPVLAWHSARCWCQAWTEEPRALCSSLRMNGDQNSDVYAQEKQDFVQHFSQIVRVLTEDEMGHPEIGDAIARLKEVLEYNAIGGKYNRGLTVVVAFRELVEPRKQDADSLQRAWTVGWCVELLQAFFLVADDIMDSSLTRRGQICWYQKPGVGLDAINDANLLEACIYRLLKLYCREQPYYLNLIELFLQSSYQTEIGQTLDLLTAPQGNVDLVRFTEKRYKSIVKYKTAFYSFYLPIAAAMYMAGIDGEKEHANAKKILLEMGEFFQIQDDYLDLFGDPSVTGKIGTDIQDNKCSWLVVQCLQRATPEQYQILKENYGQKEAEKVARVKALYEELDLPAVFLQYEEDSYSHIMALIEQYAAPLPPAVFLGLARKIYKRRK
# This is one part of the list.
# Compound: COc1ccc(Cn2ccc3ccc(C(=O)NO)cc32)cc1
# Experiment: dose-dependent thermal stabilisation call (2D-TPP, DLPTP, 10% FDR) (binary (1 = stabilised)); higher = stabilised by the compound
# Conditions: system: HL-60 intact cells; concentration range 0.04-10 µM
row,Target,dose-dependent thermal stabilisation call
1,FBXO21 (UniProt O94952),inactive: 0
2,FKBP15 (UniProt Q5T1M5),inactive: 0
3,EXOC3 (UniProt O60645),inactive: 0
4,FIG4 (UniProt Q92562),inactive: 0
5,FAM76A (UniProt Q8TAV0),inactive: 0
6,EXTL2 (UniProt Q9UBQ6),inactive: 0
7,FUT11 (UniProt Q495W5),inactive: 0
8,FKRP (UniProt Q9H9S5),inactive: 0
9,FAM128A (UniProt Q6P582),inactive: 0
10,GANAB (UniProt Q14697),inactive: 0
11,GABPB1 (UniProt Q06547),inactive: 0
12,EXOC1 (UniProt Q9NV70),inactive: 0
13,FLJ12529,inactive: 0
14,FECH (UniProt P22830),inactive: 0
15,FASN (UniProt P49327),inactive: 0
16,FTSJ1 (UniProt Q9UET6),active: 1
17,FAM50A (UniProt Q14320),inactive: 0
18,FER (UniProt P16591),inactive: 0
19,FBXO22 (UniProt Q8NEZ5),inactive: 0

row,Target,dose-dependent thermal stabilisation call
1,FDFT1 (UniProt P37268),inactive: 0
2,EVL (UniProt Q9UI08),inactive: 0
3,FAM86A (UniProt Q96G04),inactive: 0
4,FAM96A (UniProt Q9H5X1),inactive: 0
5,FNBP4 (UniProt Q8N3X1),inactive: 0
6,EXOSC9 (UniProt Q06265),inactive: 0
7,FUK (UniProt Q8N0W3),inactive: 0
8,FLNB (UniProt O75369),inactive: 0
9,FRG1 (UniProt Q14331),inactive: 0
10,FLJ43093,inactive: 0
11,FASTKD1 (UniProt Q53R41),inactive: 0
12,EXOSC2 (UniProt Q13868),inactive: 0
13,ETNK1 (UniProt Q9HBU6),inactive: 0
14,GAPDH (UniProt P04406),inactive: 0
15,FMNL1 (UniProt O95466),inactive: 0
16,EXOC5 (UniProt O00471),inactive: 0
17,FDPS (UniProt P14324),inactive: 0
18,FAM120B (UniProt Q96EK7),inactive: 0
19,FAM134C (UniProt Q86VR2),inactive: 0

# A different layout for part of the listing above:
row	Target	dose-dependent thermal stabilisation call
4	FAM96A (UniProt Q9H5X1)	inactive: 0
5	FNBP4 (UniProt Q8N3X1)	inactive: 0
6	EXOSC9 (UniProt Q06265)	inactive: 0
